## Results of single-concentration screens

Amino acid sequences for entries named in this document (tags omitted). Residues count along the entry.
UniProt P9WFT3, whole entry: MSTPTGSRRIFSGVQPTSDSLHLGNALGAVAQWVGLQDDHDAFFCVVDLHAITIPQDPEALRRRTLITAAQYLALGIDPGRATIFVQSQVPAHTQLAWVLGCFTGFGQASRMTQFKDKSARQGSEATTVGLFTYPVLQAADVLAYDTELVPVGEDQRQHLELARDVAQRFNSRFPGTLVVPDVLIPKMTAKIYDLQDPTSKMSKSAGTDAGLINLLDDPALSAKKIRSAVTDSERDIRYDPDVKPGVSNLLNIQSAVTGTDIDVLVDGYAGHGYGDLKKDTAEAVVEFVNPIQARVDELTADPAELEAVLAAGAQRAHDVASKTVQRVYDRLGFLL
UniProt I6X8D2, whole entry: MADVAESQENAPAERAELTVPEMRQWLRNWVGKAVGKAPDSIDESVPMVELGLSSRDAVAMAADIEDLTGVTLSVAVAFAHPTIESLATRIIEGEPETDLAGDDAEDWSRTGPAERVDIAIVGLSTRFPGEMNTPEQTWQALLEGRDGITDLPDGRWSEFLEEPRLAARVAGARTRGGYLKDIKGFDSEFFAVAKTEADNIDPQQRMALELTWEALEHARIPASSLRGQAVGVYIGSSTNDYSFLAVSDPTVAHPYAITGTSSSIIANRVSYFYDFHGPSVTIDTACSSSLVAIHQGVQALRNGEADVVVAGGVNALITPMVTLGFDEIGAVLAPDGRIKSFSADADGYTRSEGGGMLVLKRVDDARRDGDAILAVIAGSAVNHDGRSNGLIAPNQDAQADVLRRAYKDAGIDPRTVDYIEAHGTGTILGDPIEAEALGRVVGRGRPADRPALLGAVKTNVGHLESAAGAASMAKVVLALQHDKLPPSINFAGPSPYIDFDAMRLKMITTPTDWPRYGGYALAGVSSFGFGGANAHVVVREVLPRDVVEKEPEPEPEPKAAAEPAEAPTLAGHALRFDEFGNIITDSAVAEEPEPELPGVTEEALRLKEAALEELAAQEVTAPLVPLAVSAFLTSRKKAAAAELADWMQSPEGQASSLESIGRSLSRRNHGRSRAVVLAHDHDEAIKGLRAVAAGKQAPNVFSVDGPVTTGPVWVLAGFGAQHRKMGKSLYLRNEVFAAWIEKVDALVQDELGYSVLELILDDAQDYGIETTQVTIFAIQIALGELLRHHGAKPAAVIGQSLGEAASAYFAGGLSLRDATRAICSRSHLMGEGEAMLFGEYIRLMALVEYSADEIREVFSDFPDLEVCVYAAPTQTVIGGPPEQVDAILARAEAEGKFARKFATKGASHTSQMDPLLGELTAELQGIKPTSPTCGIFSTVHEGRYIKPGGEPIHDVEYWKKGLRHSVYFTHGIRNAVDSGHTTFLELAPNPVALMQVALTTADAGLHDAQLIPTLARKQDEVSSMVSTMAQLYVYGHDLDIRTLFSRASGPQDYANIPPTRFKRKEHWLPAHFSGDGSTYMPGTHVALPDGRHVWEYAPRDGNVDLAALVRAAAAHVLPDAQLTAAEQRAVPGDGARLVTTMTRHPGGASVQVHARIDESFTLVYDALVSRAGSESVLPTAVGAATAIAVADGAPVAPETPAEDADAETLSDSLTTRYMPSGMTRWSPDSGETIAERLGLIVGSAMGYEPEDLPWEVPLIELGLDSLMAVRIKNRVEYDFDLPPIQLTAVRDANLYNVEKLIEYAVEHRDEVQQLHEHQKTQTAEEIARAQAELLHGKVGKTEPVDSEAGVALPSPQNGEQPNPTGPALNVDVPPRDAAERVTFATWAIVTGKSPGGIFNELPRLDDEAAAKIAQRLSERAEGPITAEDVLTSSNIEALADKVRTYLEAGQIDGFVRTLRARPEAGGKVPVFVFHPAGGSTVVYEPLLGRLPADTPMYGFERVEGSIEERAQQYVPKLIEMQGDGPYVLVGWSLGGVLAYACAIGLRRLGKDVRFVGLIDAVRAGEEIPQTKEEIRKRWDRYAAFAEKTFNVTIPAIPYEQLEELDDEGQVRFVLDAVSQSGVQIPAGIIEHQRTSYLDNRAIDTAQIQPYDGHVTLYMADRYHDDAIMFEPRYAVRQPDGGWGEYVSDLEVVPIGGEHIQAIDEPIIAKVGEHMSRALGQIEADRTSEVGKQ
UniProt Q4DA54, 1-478: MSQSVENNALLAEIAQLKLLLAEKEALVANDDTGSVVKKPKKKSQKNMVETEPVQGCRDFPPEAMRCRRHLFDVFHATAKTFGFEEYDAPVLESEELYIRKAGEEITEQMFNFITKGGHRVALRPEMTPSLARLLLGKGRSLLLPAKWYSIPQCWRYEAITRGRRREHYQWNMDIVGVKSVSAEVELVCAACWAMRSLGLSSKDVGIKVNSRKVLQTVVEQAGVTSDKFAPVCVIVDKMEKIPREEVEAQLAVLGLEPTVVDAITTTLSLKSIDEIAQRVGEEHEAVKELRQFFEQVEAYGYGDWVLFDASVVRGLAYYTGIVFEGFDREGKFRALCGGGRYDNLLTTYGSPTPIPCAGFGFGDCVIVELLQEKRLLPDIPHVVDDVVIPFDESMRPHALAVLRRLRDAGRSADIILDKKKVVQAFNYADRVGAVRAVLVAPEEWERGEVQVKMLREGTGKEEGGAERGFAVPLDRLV

MtTrpRS: 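Enzyme assay of tryptophanyl-tRNA synthetase; the read-out is not stated. Target: Tryptophan-tRNA ligase, Mycobacterium tuberculosis (UniProt P9WFT3). Concentration: 10 µM. Higher most likely means stronger inhibition; the record gives no direction and few retests gave an IC50. Size under these conditions: about 65,000 compounds, about 64 of them at 50% or above in at least one test.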
Leishmania in macrophages: 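Cell assay of Leishmania donovani living inside macrophages; the read-out is not stated. Compounds at 30 µM. Higher reads as stronger inhibition (inferred: compounds with an IC50 in retests scored well above the rest). Size under these conditions: about 69,000 compounds, about 1,000 of them at 50% or above in at least one test.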
Pks13 thioesterase: 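Polyketide synthase Pks13, Mycobacterium tuberculosis (UniProt I6X8D2). Enzyme assay of the thioesterase domain of polyketide synthase 13; the read-out is not stated. Compounds at 30 µM. The record gives no direction; the compounds picked for IC50 retests had high values, so higher reads as stronger inhibition. About 67,000 compounds were tested under these conditions; 0.46% (about 300) showed 50% or more at least once.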
TcHisRS: 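Histidine-tRNA ligase, Trypanosoma cruzi CL Brener (UniProt Q4DA54). Enzyme assay of histidyl-tRNA synthetase; the read-out is not stated. Tested at 30 µM. Direction is inferred from retests: higher values go with stronger inhibition. Of about 69,000 compounds tested this way, about 31 (0.045%) reached 50% or more in at least one test.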

The filed quantity is “Percent Effect” (%).
The controls that fix the scale are not given in the record; negative values are as filed.
The compounds are a random part of those screened.

Result for Cc1cccc(NC(=O)N2CCOCC(CN(C)C)C2)c1C (stereo unspecified) was MtTrpRS: -0.9031%; Leishmania in macrophages: -22.59%; Pks13 thioesterase: 7.371%; TcHisRS: 9.524%. Result for O=C(CCN1CCC(C(=O)c2cc(F)ccc2F)CC1)NC1CC1 was MtTrpRS: -0.9534%; Leishmania in macrophages: 25.9%; Pks13 thioesterase: -38.7%; TcHisRS: 1.087%. COCCC(=O)N1C[C@H]2CC[C@@H]1CN(C1Cc3ccccc3C1)C2 read MtTrpRS: 3.782%; Pks13 thioesterase: -40.5%; TcHisRS: 3.488%. CSCC(CCO)Nc1cccc(C(F)(F)F)n1 (stereo unspecified) read MtTrpRS: 0.8189%; Leishmania in macrophages: 27.46%; Pks13 thioesterase: -25.76%; TcHisRS: 4.255%.

CCC(CNC(=O)c1ccc(=O)[nH]n1)N1CCc2ccccc2C1 (stereo unspecified) read MtTrpRS: 5.96%; Leishmania in macrophages: 27.87%; Pks13 thioesterase: -9.58%; TcHisRS: -0.8333%. Result for COCCOC(=O)N1CCC(c2nccn2CC2CC2)CC1 was MtTrpRS: 0.3623%; Leishmania in macrophages: 7.044%; Pks13 thioesterase: 4.665%; TcHisRS: 5.528%. Cc1ncn(-c2cc(N3CCN(S(C)(=O)=O)CC3)ncn2)c1C read MtTrpRS: -5.146%; Leishmania in macrophages: 3.97%; Pks13 thioesterase: -22.61%; TcHisRS: 4.444%. With CS(=O)(=O)NCc1cnc2n1CCN(Cc1ccco1)CC2 the screen gave MtTrpRS: 1.952%; Pks13 thioesterase: -1.74%; TcHisRS: 7.895%.

Cn1cc(C(=O)N2CCCC(c3ccncc3)C2)cn1 (stereo unspecified) read Leishmania in macrophages: 14.66%; Pks13 thioesterase: -17.82%; TcHisRS: 10.64%. For COCC(=O)N1CCC2(CCC2N(C)Cc2ccco2)CC1.O=C(O)C(F)(F)F (stereo unspecified) the result was Leishmania in macrophages: 15.17%. With Cc1cs/c(=N\C(=O)Cn2nc(N3CCSCC3)ccc2=O)[nH]1 the screen gave MtTrpRS: -2.925%; Leishmania in macrophages: 0.8015%; Pks13 thioesterase: 5.605%; TcHisRS: 0%. Result for Cc1nn(C)c2cn(CC(=O)N3CCN(c4ccccn4)CC3)nc12 was MtTrpRS: -1.273%; Leishmania in macrophages: 17.77%; Pks13 thioesterase: 7.506%; TcHisRS: 7.589%.

For Clc1snnc1CN(Cc1cccs1)C1CC1 the result was MtTrpRS: 1.924%; Leishmania in macrophages: 11.23%; Pks13 thioesterase: -5.908%; TcHisRS: 4.348%. CCCN1CCC(Nc2nc(C)ns2)CC1 gave MtTrpRS: -4.063%; Leishmania in macrophages: 10.77%; Pks13 thioesterase: -13.75%; TcHisRS: 6.878%. Result for CN1CCC(c2cnc(NCc3nccn3C)cn2)CC1 was MtTrpRS: 12.19%; Leishmania in macrophages: -6.047%; Pks13 thioesterase: -2.702%; TcHisRS: 6.513%. Result for O=C(CCCc1ccc(Cl)cc1)N1CCN(C(=O)c2ccc[nH]2)CC1 was MtTrpRS: -2.062%; Leishmania in macrophages: 35.99%; Pks13 thioesterase: -29.67%; TcHisRS: 9.574%.

C=Cc1ccc(CN2CCCC3(CNC(=O)c4ccccc4O3)C2)cc1 (stereo unspecified) read Leishmania in macrophages: -7.721%; Pks13 thioesterase: 40.15%; TcHisRS: 11.7%. Result for O=C(O)c1cccnc1CN1CCOc2ccccc2C1 was MtTrpRS: -0.4571%; Leishmania in macrophages: 22.07%; Pks13 thioesterase: -32.4%; TcHisRS: 6.404%. With CCOC(=O)CN(CC(F)(F)F)C(=O)c1nc(C)n2ccccc12 the screen gave MtTrpRS: -2.465%; Leishmania in macrophages: 1.676%; TcHisRS: 9.412%. CCOc1ccc2[nH]c(=O)c(CN3CCC(N4CCCC4)CC3)cc2c1 read MtTrpRS: 0.4519%; Leishmania in macrophages: 15.68%; Pks13 thioesterase: -17.6%; TcHisRS: 4.036%.

Cc1nc(Nc2nnc(C)s2)cc(C2CCCN2c2ccncc2)n1 (stereo unspecified) gave Leishmania in macrophages: 17.88%; Pks13 thioesterase: -17.28%; TcHisRS: 2.996%. Result for CCC(CC)CNCC1(S(C)(=O)=O)CCOCC1 was MtTrpRS: -3.816%; Leishmania in macrophages: 20.3%; Pks13 thioesterase: -18.59%; TcHisRS: 2.463%.

Measurements from “University of Dundee, Small-Polar-MMV Screening Library” (2021), ChEMBL document CHEMBL3988442.